# Test results as given in the supplement of paper PMC10689618.
# Counter-ions that a name gives are not always drawn. This is one part of the list. Single values are uncertain, as repeats are few or missing.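 Labelled rat cortical synaptosomes were engulfed by primary human fetal astrocytes. Engulfment equaled a red/green ratio, corrected for calcein live-cell signal and normalized to the plate median. Compounds were toxic when calcein dropped over 30%, and reduced phagocytosis when below 70% of the median above 5 µM.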
# Assays:
# Conditions in all cases: 24 h
# Human fetal astrocytes [1] = test: loss of total cells relative to no-compound high-control median (toxicity); higher = more toxic (fewer cells)
# Human fetal astrocytes [2] = test: synaptosome phagocytosis (pHrodo/calcein intensity ratio) relative to plate median of data wells; higher = more phagocytosis
# Human fetal astrocytes [3] = test: loss of total cells relative to no-compound high-control median (toxicity); higher = more toxic (fewer cells); remark: listed apart in the source
# Human fetal astrocytes [4] = test: synaptosome phagocytosis (pHrodo/calcein intensity ratio) relative to plate median of data wells; higher = more phagocytosis; remark: listed apart in the source
Structure (SMILES),loss of total cells (Human fetal astrocytes [1]; 1.39 µM) [%],loss of total cells (Human fetal astrocytes [1]; 2.78 µM) [%],loss of total cells (Human fetal astrocytes [1]; 5.56 µM) [%],loss of total cells (Human fetal astrocytes [1]; 11.11 µM) [%],loss of total cells (Human fetal astrocytes [1]; 22.22 µM) [%],synaptosome phagocytosis (Human fetal astrocytes [2]; 1.39 µM) [%],synaptosome phagocytosis (Human fetal astrocytes [2]; 2.78 µM) [%],synaptosome phagocytosis (Human fetal astrocytes [2]; 5.56 µM) [%],synaptosome phagocytosis (Human fetal astrocytes [2]; 11.11 µM) [%],synaptosome phagocytosis (Human fetal astrocytes [2]; 22.22 µM) [%],loss of total cells (Human fetal astrocytes [3]; 1.39 µM) [%],loss of total cells (Human fetal astrocytes [3]; 2.78 µM) [%],loss of total cells (Human fetal astrocytes [3]; 5.56 µM) [%],loss of total cells (Human fetal astrocytes [3]; 11.11 µM) [%],loss of total cells (Human fetal astrocytes [3]; 22.22 µM) [%],synaptosome phagocytosis (Human fetal astrocytes [4]; 1.39 µM) [%],synaptosome phagocytosis (Human fetal astrocytes [4]; 2.78 µM) [%],synaptosome phagocytosis (Human fetal astrocytes [4]; 5.56 µM) [%],synaptosome phagocytosis (Human fetal astrocytes [4]; 11.11 µM) [%],synaptosome phagocytosis (Human fetal astrocytes [4]; 22.22 µM) [%]
O=P1(NCCCl)OCCCN1CCCl (stereo not given),-12.9,-23.8,0,-18.7,5.9,88.5,94,87.8,86.3,125,,,,,,,,,,
C[C@]12CCC(=O)C=C1C=C[C@@H]1[C@@H]2CC[C@@]2(C)[C@H]1CC[C@@]2(O)CCC(=O)O,5,-6.4,-4.9,-4.3,28.3,104,86.6,86.2,126,120,,,,,,,,,,
CC(=O)O[C@H]1CC[C@@]2(C)[C@H](CC[C@@H]3[C@@H]2CC[C@]2(C)[C@@H](C4=CC(=O)OC4)[C@@H](OC(C)=O)C[C@]32O)C1,17.8,8.6,34.4,45.2,4.8,71.9,52.7,18.2,12.2,47.2,,,,,,,,,,
[N-]=[N+]=CC(=O)OC[C@H](N)C(=O)O,9.7,9,-1.4,14.6,28,99.8,125,115,101,95.2,,,,,,,,,,
CC(=O)[C@H]1CC[C@H]2[C@@H]3CC[C@H]4C[C@H](O)CC[C@]4(C)[C@H]3CC[C@]12C,-22.1,-0.7,27.5,9,7,94.2,93.5,113,100,108,,,,,,,,,,
Oc1ccc(Cl)cc1Cc1cc(Cl)ccc1O,24.2,24.9,18.8,16.3,18.9,128,107,101,10,5.9,,,,,,,,,,
CCCC(C)C1(CC)C(=O)NC(=S)NC1=O (stereo not given),-9.1,-15.5,7.5,-7.8,-14.2,120,105,100,82.6,114,,,,,,,,,,
O=[N+]([O-])O[C@@H]1CO[C@H]2[C@@H]1OC[C@@H]2O,-43.5,-19.8,0.6,13.4,12.1,98.7,114,104,100,119,,,,,,,,,,
O=C1NC(=O)C(=O)C(=O)N1,-6.1,5.4,-4.3,9.6,9.1,101,68.6,97.3,107,75.5,,,,,,,,,,
c1cc2c(cc1[C@H]1OC[C@H]3[C@@H]1CO[C@H]3c1ccc3c(c1)OCO3)OCO2,-1.6,10.5,11.7,4.1,4.4,99.3,109,112,81,113,,,,,,,,,,
CC[C@H]1CN2CC[C@H]1C[C@@H]2[C@@H](O)c1ccnc2ccc(OC)cc12,11.9,6.1,8,-7.1,8.3,114,123,48,80.7,89.2,,,,,,,,,,
C[C@@H]1CC[C@]2(NC1)O[C@H]1C[C@H]3[C@@H]4CC=C5C[C@@H](O)CC[C@]5(C)[C@H]4CC[C@]3(C)[C@H]1[C@@H]2C [Solasodine hydrochloride],11.2,1.3,0.8,43.9,3.3,123,125,85.4,123,129,,,,,,,,,,
CN1C2CC(=O)CC1C(O)C2 (stereo not given),22.7,14.1,22.5,1.3,30.3,141,103,128,112,118,,,,,,,,,,
COc1cc([C@@H]2c3cc4c(cc3[C@H](OC(C)=O)[C@H]3COC(=O)[C@H]23)OCO4)cc(OC)c1OC,-7.4,27.8,15.4,18.9,23,94,83.1,76.3,40.8,79.4,,,,,,,,,,
C=CCc1ccc2c(c1)OCO2,-8.2,6.1,3.7,3.4,3.7,141,105,98.9,106,71.8,,,,,,,,,,
CC(C)[N+](C)(CCC(C(N)=O)(c1ccccc1)c1ccccc1)C(C)C,12.8,-12.5,-20.2,14.7,-27.7,111,111,96.9,88.9,60.2,,,,,,,,,,
COc1ccc2c3c([nH]c2c1)C(C)=NCC3,19.9,17,-63,5.4,15.9,13.3,75.5,0,63,65.8,,,,,,,,,,
COc1ccc(Cc2nccc3cc(OC)c(OC)cc23)cc1OC [Papaverine hydrochloride],16.6,-0.9,1.5,14.8,11.9,89.2,86.5,74.9,69.4,77.2,,,,,,,,,,
CC(=O)[O][Hg][c]1ccccc1,96.4,99.3,105,101,104,0,0,0,0,0,,,,,,,,,,

Structure (SMILES),loss of total cells (Human fetal astrocytes [1]; 1.39 µM) [%],loss of total cells (Human fetal astrocytes [1]; 2.78 µM) [%],loss of total cells (Human fetal astrocytes [1]; 5.56 µM) [%],loss of total cells (Human fetal astrocytes [1]; 11.11 µM) [%],loss of total cells (Human fetal astrocytes [1]; 22.22 µM) [%],synaptosome phagocytosis (Human fetal astrocytes [2]; 1.39 µM) [%],synaptosome phagocytosis (Human fetal astrocytes [2]; 2.78 µM) [%],synaptosome phagocytosis (Human fetal astrocytes [2]; 5.56 µM) [%],synaptosome phagocytosis (Human fetal astrocytes [2]; 11.11 µM) [%],synaptosome phagocytosis (Human fetal astrocytes [2]; 22.22 µM) [%],loss of total cells (Human fetal astrocytes [3]; 1.39 µM) [%],loss of total cells (Human fetal astrocytes [3]; 2.78 µM) [%],loss of total cells (Human fetal astrocytes [3]; 5.56 µM) [%],loss of total cells (Human fetal astrocytes [3]; 11.11 µM) [%],loss of total cells (Human fetal astrocytes [3]; 22.22 µM) [%],synaptosome phagocytosis (Human fetal astrocytes [4]; 1.39 µM) [%],synaptosome phagocytosis (Human fetal astrocytes [4]; 2.78 µM) [%],synaptosome phagocytosis (Human fetal astrocytes [4]; 5.56 µM) [%],synaptosome phagocytosis (Human fetal astrocytes [4]; 11.11 µM) [%],synaptosome phagocytosis (Human fetal astrocytes [4]; 22.22 µM) [%]
CCCC(C)(COC(N)=O)COC(=O)NC(C)C (stereo not given) [Carisoprodol],-21.6,-12.5,2.1,-36.7,-14.7,136,74.2,119,112,97.7,,,,,,,,,,
CC[C@H]1/C=C/C=C/C[C@@H](C)[C@H](O)[C@@](C)(O)C(=O)[C@@H](C)[C@H](O)[C@@H](C)C(=O)[C@@H](C)[C@H](O)[C@@H](C)/C=C/C(=O)O[C@@H]2[C@H](C)[C@H](CC1)O[C@]1(CC[C@H](C)[C@H](C[C@@H](C)O)O1)[C@H]2C [OLIGOMYCIN (A shown)],6.6,4.7,11,18.9,23.7,68.9,99.9,108,108,75.2,,,,,,,,,,
Cc1ccc(C[N+](C)(C)C)o1,-21.3,4,0.7,11.5,4.4,96.6,90.9,80.2,145,107,,,,,,,,,,
C[C@H]1C(=O)O[C@@H]2CCN3CC=C(COC(=O)[C@](C)(O)[C@]1(C)O)[C@H]23,-31.1,-7.6,-0.7,11.5,-3.7,86.8,111,85.8,120,128,,,,,,,,,,
N#C/C(=C\c1cccc(O)c1)C(=O)O [alpha-CYANO-3-HYDROXYCINNAMIC ACID],18.4,6.1,-3.6,-16.3,17.4,96.6,101,122,136,115,,,,,,,,,,
C=C[C@H]1CN2CC[C@H]1C[C@@H]2[C@@H](O)c1ccnc2ccccc12,-2.1,-3.1,7,2,-7,102,76.9,89.5,102,90.9,,,,,,,,,,
CCN(CCCl)Cc1ccccc1Br [DSP-4 hydrochloride],,,,,,,,,,,-24.6,-9.3,-8.8,11.2,-3.4,87.4,83.1,97,116,98.6
CC(=O)NBr [N-Bromoacetamide],,,,,,,,,,,-1.1,-7.5,-21.7,-0.4,13.2,125,119,92.5,96.4,116
CC(N)Cc1c[nH]c2ccc(OCc3cccs3)cc12 (stereo not given),,,,,,,,,,,-24.2,-21.7,-12.4,1.3,7.1,98,105,100,83.4,81.9
Oc1cc2c(cc1O)[C@H]1c3ccccc3CN[C@@H]1CC2 (racemic) [Dihydrexidine hydrochloride],,,,,,,,,,,-1.3,0.9,-4.1,17.5,7.2,105,91,76.7,61.1,23.3
CCCN(CCC)[C@H]1CCc2c(F)ccc(O)c2C1 [S(-)-UH-301 hydrochloride],,,,,,,,,,,-11.5,-7.5,-7.3,-2.7,-2.5,94.4,100,93.2,115,84.9
CCCCCCC(C)(C)c1ccc([C@@H]2C[C@H](O)CC[C@H]2CCCO)c(O)c1,,,,,,,,,,,-13.9,-13.5,-12.4,-5.8,10.2,116,73.9,118,107,66.9
C[N+](C)(C)CC#CCOC(=O)Nc1cccc(Cl)c1,,,,,,,,,,,-21.7,-13.2,-23.5,-25.6,14.7,101,86.9,87.8,94.3,104
CCCN(CCC)C1CCc2cccc(O)c2C1 (racemic) [(±)-8-Hydroxy-DPAT hydrobromide],,,,,,,,,,,-1.3,-7.7,7.4,-22,-1.6,132,110,72,121,124
C[C@@]12C(=O)OC(=O)[C@]1(C)[C@H]1CC[C@@H]2O1 [Cantharidin],,,,,,,,,,,-16.9,-0.9,-10.6,4.9,23.7,111,146,103,125,118
"CCCN1CCO[C@@H]2c3cc(O)ccc3OC[C@H]21 [S(+)-PD 128,907 hydrochloride]",,,,,,,,,,,-11.5,-30.2,-4.5,-28,-37,101,78.7,112,108,110
C#C[C@]1(O)CC[C@H]2[C@@H]3CCC4=CC(=O)CC[C@]4(C)[C@H]3CC[C@@]21C,-26.6,36.5,-1.2,44.3,-9,71.7,135,97.5,147,118,,,,,,,,,,
CC(Cc1ccc(O)cc1)NCC(O)c1cc(O)cc(O)c1 (stereo not given) [Fenoterol hydrobromide],,,,,,,,,,,-1.3,-26.5,0.8,2.2,0,87,95.6,112,111,134
S=C(NC1CCCCC1)N1CCC(c2cnc[nH]2)CC1 [Thioperamide maleate],,,,,,,,,,,-8.4,-4.5,7.3,7.3,4.1,106,108,100,107,95.3
